# Experimental data taken from PubChem BioAssay AID2662 (National Center for Advancing Translational Sciences (NCATS), 2010).
# By UniProt entry, the sequences of proteins in these tests, tags left out.
# UniProt Q03164, whole entry, looked up: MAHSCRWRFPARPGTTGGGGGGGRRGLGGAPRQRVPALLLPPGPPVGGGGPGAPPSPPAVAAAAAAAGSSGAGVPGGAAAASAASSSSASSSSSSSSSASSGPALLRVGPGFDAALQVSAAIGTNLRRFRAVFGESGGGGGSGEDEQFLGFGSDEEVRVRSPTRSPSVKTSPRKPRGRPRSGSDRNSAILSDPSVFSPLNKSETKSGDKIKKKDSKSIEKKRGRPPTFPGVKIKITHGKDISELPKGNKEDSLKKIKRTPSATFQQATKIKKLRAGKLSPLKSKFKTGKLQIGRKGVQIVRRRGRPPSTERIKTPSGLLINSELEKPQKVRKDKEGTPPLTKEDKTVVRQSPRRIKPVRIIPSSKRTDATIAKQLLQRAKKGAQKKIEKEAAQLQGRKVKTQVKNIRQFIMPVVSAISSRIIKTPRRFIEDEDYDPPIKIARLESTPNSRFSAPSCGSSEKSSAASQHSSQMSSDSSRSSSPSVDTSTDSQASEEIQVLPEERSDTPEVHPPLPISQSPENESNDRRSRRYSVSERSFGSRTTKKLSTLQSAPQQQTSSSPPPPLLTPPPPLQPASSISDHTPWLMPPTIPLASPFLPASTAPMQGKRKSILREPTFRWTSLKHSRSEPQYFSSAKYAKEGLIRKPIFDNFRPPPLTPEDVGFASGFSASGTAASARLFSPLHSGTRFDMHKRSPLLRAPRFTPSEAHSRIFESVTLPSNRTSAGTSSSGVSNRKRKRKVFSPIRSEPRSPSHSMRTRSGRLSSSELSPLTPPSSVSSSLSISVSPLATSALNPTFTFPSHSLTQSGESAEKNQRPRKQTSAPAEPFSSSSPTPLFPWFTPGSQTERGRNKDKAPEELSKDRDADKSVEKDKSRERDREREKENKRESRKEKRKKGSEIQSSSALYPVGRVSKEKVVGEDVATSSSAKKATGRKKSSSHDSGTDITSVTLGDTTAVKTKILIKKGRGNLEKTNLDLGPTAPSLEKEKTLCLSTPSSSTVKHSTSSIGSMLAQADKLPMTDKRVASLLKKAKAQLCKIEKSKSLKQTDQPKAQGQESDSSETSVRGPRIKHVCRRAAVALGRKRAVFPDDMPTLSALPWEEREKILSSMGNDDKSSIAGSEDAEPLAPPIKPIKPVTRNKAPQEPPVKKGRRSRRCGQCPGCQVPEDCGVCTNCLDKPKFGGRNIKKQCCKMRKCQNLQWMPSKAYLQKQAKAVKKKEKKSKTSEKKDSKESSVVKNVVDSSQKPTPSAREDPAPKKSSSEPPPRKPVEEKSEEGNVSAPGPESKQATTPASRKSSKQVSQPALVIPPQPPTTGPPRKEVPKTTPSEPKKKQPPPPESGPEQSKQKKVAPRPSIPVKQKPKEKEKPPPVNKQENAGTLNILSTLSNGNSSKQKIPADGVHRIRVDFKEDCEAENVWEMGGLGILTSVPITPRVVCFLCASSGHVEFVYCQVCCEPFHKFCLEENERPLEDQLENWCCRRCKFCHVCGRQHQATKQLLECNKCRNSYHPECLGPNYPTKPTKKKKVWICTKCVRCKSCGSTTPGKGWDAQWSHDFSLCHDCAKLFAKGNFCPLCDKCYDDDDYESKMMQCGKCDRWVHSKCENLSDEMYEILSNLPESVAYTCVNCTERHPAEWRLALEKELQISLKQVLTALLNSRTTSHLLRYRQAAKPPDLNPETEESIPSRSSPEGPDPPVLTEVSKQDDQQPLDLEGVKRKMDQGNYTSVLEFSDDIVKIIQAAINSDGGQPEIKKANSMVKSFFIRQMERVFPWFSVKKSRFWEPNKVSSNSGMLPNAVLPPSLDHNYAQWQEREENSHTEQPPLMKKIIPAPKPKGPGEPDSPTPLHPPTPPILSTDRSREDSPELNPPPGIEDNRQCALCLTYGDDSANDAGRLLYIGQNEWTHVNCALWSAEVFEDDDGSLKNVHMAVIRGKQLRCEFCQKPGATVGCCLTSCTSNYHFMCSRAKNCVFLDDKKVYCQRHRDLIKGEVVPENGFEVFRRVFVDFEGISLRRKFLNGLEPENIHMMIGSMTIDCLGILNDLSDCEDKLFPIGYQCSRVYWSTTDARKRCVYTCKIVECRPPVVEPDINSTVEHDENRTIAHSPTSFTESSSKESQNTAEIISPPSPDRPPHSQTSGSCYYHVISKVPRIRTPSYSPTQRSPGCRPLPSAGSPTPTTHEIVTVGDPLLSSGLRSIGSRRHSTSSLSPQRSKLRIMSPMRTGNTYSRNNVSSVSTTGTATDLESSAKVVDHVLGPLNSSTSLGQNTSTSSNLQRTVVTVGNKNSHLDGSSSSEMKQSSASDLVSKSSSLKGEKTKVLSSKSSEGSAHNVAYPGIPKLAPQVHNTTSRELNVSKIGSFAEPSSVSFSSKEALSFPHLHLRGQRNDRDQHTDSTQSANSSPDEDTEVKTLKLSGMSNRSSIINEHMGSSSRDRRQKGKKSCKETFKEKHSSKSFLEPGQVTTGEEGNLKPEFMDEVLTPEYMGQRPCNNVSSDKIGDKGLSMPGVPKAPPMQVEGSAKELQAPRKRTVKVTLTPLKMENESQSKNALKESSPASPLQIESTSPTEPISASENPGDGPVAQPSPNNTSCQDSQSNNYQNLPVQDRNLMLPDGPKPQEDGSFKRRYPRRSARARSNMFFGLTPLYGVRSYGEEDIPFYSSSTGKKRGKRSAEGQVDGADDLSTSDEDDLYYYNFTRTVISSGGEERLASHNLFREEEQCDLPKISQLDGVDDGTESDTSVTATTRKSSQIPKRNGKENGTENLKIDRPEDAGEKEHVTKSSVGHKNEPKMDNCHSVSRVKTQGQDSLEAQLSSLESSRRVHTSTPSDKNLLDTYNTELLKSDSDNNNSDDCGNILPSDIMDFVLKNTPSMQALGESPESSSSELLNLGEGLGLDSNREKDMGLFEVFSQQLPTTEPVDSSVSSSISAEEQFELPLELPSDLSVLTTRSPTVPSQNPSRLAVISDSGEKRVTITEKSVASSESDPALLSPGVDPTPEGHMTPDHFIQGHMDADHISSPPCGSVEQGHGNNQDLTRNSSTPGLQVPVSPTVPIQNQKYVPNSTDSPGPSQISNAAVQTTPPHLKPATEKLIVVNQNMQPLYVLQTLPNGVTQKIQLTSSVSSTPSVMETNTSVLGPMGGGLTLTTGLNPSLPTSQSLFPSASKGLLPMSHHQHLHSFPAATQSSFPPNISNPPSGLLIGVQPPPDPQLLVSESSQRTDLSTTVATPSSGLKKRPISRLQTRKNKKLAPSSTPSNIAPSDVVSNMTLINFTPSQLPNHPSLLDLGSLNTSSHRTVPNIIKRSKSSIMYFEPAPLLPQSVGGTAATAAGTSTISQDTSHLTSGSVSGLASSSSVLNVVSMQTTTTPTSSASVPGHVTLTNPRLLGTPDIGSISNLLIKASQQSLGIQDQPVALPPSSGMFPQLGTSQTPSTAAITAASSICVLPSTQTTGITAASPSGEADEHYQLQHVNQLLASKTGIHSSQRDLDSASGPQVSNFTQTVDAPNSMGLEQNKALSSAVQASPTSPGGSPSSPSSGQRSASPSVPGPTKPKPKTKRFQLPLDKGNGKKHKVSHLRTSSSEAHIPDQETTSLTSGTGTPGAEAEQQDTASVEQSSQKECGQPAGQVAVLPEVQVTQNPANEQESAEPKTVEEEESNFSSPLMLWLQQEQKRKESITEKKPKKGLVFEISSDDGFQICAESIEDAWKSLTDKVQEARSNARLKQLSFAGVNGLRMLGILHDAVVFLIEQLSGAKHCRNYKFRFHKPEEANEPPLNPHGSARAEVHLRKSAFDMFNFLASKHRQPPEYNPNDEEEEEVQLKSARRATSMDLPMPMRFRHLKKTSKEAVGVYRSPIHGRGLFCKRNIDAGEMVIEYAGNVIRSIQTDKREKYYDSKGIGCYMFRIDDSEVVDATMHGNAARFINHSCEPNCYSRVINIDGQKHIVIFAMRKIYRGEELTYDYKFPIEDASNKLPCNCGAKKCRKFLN
# Among all 290,000 compounds or so, about 110 (0.038%) were called active. The shares of active, inactive and inconclusive entries below differ from those in the screen. The call rests on the fitted dose curve; in most records, active means well fitted inhibition curve with a large enough effect in the polarisation, with a control signal flat (not every such curve was filed as active); inconclusive means small, poorly fitted or top-dose-only effect, or effect the other way, or a change in a side signal; inactive means no such curve, though single readings can be large or run the other way; the % refers to the polarisation. Potencies beside an inconclusive call are fits to weak or partial responses and may not hold up. “Side channel” marks fits to a control or component signal instead of the main read-out.
# Biological target: Histone-lysine N-methyltransferase 2A (Homo sapiens) (UniProt Q03164)
# Assay: qHTS Fluorescence Polarization Assay for Inhibitors of MLL CXXC domain - DNA interaction
# Settings: MLL-CXXC / FITC-HOXA9 DNA fluorescence polarization; series mostly up to 115 µM
# Procedure, shortened: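 Purified MLL-CXXC (added from a 7 uM solution) was preincubated 5 min at ambient with pinned compounds in 50 mM Tris-HCl pH 7.5, 50 mM NaCl, 1 mM DTT, 0.05% BSA. Fluorescein-labeled HOX-A9 DNA (50 nM solution) followed, 30 min, then polarization read.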
# Potency means the concentration at half of the fitted maximal effect.
row,SMILES,Potency
1,CC(=O)Nc1ccc(-c2sc(Nc3cccc4ccccc34)n[n+]2-c2ccccc2)cc1,"inconclusive: 20 µM [quencher, side channel, partial curve]"
2,O=c1c2ccccc2nc(N/N=C/c2c(O)ccc3ccccc23)n1O,"inconclusive: 70.8 µM [fluorescent, side channel, single point]"
3,CN1/C(=C/C=C(C#N)C#N)C=Cc2ccccc21,"inconclusive: 70.8 µM [fluorescent, side channel, single point]"
4,CSc1nc(=O)n2cc(C)ccc2n1,inactive
5,COc1cccc(CNCCc2c[nH]c3ccccc23)c1OCc1ccc(F)cc1,"inconclusive: 25.1 µM [quencher, side channel, partial curve]"
6,CC(C)C(C(=O)Nc1ccc(S(N)(=O)=O)cc1)N1C(=O)c2ccccc2C1=O (centres undefined),"inconclusive: 12.6 µM [inhibitor, full curve]"
7,O=C(NCCc1ccccc1)C1CCN(C(=O)c2ccc(F)cc2)CC1,"inconclusive: 3.55 µM [quencher, side channel, partial curve, poor fit]"
8,O=C(NC1CCCCC1)C(c1cccs1)N(C(=O)c1ccco1)c1ccc2c(c1)OCCO2 (centres undefined),inactive
9,COc1ccc(-n2c(=S)[nH]c3sc4c(c3c2=O)CCc2ccccc2-4)cc1,"inconclusive: 10 µM [fluorescent, side channel, single point]"
10,COc1cc(CCC(=O)Oc2ccc(C(C)=O)cc2)cc(OC)c1OC,"inconclusive: 39.8 µM [quencher, side channel, single point]"
11,CC(=O)[C@@]1(O)C(C)CC2C3C=C(C)C4=Cc5c(cnn5-c5ccccc5)C[C@]4(C)C3C(O)C[C@@]21C (some centres undefined),"inconclusive: 50.1 µM [inhibitor, single point]"
12,Cc1nn(C)c(C)c1S(=O)(=O)N(CC(=O)NCCCOC(C)C)c1ccc(C(C)C)cc1,"inconclusive: 2.51 µM [fluorescent, side channel, full curve, poor fit]"
13,N=C1/C(=C\c2ccc(-c3ccc(C(=O)O)cc3)o2)C(=O)N=C2SC=C(c3ccccc3)N12,"inconclusive: 1 µM [fluorescent, side channel, full curve]"
14,COc1ccccc1NC(=O)/C(C#N)=C/c1cc([N+](=O)[O-])ccc1N1CCCC1,"inconclusive: 35.5 µM [fluorescent, side channel, partial curve]"
15,CSCC[C@H](NC(=O)[C@H](Cc1ccccc1)n1c(=O)[nH]c2ccccc2c1=O)C(=O)NCC1CCC(C(=O)O)CC1 (some centres undefined),"inconclusive: 11.2 µM [fluorescent, side channel, partial curve]"
16,CCOC(=O)c1ccc(S(=O)(=O)NNS(=O)(=O)c2ccc(C)cc2)cc1,"inconclusive: 44.7 µM [fluorescent, side channel, partial curve]"
17,CS(=O)(=O)N1CCC(C(=O)Nc2ccc(Br)cc2F)CC1,inactive
18,Cc1ccccc1N1CC(C(=O)N2CC(C)OC(C)C2)CC1=O (centres undefined),"inconclusive: 50.1 µM [fluorescent, side channel, single point]"
19,CCCCN(CCCC)CC(O)c1cc(Cl)cc2c1-c1ccc(Cl)cc1/C2=C/c1ccc(Cl)cc1 (centres undefined),inactive
20,CCCn1c(N)c(C(=O)CSc2nc3ccccc3n2CCC#N)c(=O)n(C)c1=O,inactive

# Random excerpt: two records from the list, in no set order.
row,SMILES,Potency
20,CCCn1c(N)c(C(=O)CSc2nc3ccccc3n2CCC#N)c(=O)n(C)c1=O,inactive
6,CC(C)C(C(=O)Nc1ccc(S(N)(=O)=O)cc1)N1C(=O)c2ccccc2C1=O (centres undefined),"inconclusive: 12.6 µM [inhibitor, full curve]"

# Further results

row,SMILES,Potency
1,Cc1cc(O)cc(C)c1Cl,inactive
2,COc1ccccc1N=C1NC(=O)/C(=C/c2ccc(N(C)C)cc2)S1,"inconclusive: 44.7 µM [fluorescent, side channel, partial curve]"
3,CC(C)C(=O)Nc1cccc(-c2nc3ccccc3o2)c1,inactive
4,O=C(NNC(=O)c1cc(-c2ccncc2)nc2ccccc12)Nc1ccc(F)cc1,"inconclusive: 12.6 µM [fluorescent, side channel, single point]"
5,O=C(NC1CC1)c1cc2cc(Br)ccc2s1,"inconclusive: 14.1 µM [quencher, side channel, single point]"
6,O=C(CCNC(=O)c1ccccc1Cl)Nc1ccccc1N1CCCC1,"inconclusive: 8.91 µM [quencher, side channel, single point]"
7,C/C(=N\NC(=O)c1cccc2ccccc12)c1ccccn1,"inconclusive: 3.16 µM [inhibitor, full curve, poor fit]"
8,Cc1[nH]c(=O)[nH]c(=O)c1S(=O)(=O)N1CCC(C(=O)NC(C)c2ccccc2)CC1 (centres undefined),inactive
9,CCOC(=O)CSc1nc(C)cc2c1C(=O)OC2,"inconclusive: 12.6 µM [fluorescent, side channel, partial curve]"
10,Cc1c(Cl)cccc1NC(=O)NCc1ccccn1,"inconclusive: 14.1 µM [fluorescent, side channel, single point]"
11,C/C(C/C(C)=C1/SC(=S)NC1=O)=C1\SC(=S)NC1=O,"inconclusive: 31.6 µM [fluorescent, side channel, partial curve]"
12,CCn1c(/C=C/N(C(C)=O)c2ccccc2)[n+](CC)c2ccc(Cl)cc21,inactive
13,COc1ccc(S(=O)(=O)c2c(N)n(Cc3ccco3)c3nc4ccccc4nc23)cc1,inactive
14,CCN(CC)CCNc1ncnc2c1sc1nc(N3CCOCC3)c3c(c12)CC(C)(C)SC3,"inconclusive: 11.2 µM [quencher, side channel, partial curve]"
15,Cc1c(-c2ccccc2Cl)nc2ccccc2c1C(=O)O,"inconclusive: 35.5 µM [fluorescent, side channel, partial curve]"
16,COc1ccc(NS(=O)(=O)c2ccc(Cl)s2)cn1,"inconclusive: 50.1 µM [inhibitor, partial curve]"
17,CN(C)c1ccc(C(=S)N2CCN(c3ccc([N+](=O)[O-])cc3)CC2)cc1,inactive
18,C(=N\Nc1nc2ccccc2s1)/c1ccccn1,"inconclusive: 39.8 µM [fluorescent, side channel, single point]"
19,CCOC(=O)c1c(-c2ccccc2)c2cc(OC)ccc2n1CCCN(C)C,"inconclusive: 7.08 µM [quencher, side channel, full curve, poor fit]"
